Laboratory results from patent publication US20030166009A1 (MERCK, published 2003).
No constants are given. Whether binding was seen depends on the method and setting. Some entries that bind do so weakly or less than the wild type. Where no end group is shown, it is not given here.

The chains behind the UniProt entries cited, without tags or fusion partners. Where a name states a change or a piece, a line headed by the entry shows the natural chain unless it says otherwise.
UniProt P01189: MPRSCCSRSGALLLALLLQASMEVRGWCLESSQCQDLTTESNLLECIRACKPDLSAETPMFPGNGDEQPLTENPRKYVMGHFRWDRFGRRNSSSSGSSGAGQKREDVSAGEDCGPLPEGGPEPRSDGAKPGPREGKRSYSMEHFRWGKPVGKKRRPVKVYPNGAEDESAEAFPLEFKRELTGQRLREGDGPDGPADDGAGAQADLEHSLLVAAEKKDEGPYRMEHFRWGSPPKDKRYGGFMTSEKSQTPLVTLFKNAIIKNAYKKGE

Biological target: rhesus melanocortin-4 receptor protein (rhesus monkey (Macaca mulatta))
Test: competitive radioligand binding on crude membranes, rank order of potency

binding | Binder
binds | YVMGHFRWDRF (peptide, UniProt P01189 77-87, looked up, ends and bridges not checked, domain: gamma MSH; The peptide is only a part of it; also called γ-MSH) [Gamma MSH]
binds | DEGPYRMEHFRWGSPPKD (peptide, UniProt P01189 217-234, looked up, domain: beta MSH; The peptide is only a part of it; also called β-MSH) [Beta MSH]
